{"source": "patent US20040229246A1", "about": "“Diagnostic markers for therapeutic treatment” (Can-Fite Biopharam Ltd., priority 2002, published 2004)", "test_system": "PKA and GSK-3β", "experiment": "Receptor functionality: Western blot of PKA and GSK-3β in B16-F10 melanoma cells", "format": "cell-based", "experimental": "To detect the level of expression of the A3AR proteins Western blot analysis was performed. Cells were incubated in the presence and absence of IB-MECA (10 nM), MRS1523 (10 nM), Forskolin (50 nM), 8 Br cAMP (100 μM), Cycloheximide 20 μg/ml or MG 132 (20 nM) for different time periods at 37° C. Cells were then rinsed with ice-cold PBS and transferred to ice-cold lysis buffer (TNN buffer, 50 mM Tris buffer pH=7.5, 150 mM NaCl, NP 40). In the experiment examining the effect of trypsin on A3AR expression, cells were incubated with 0.5 ml of 0.25% trypsin for 5 minutes. The trypsinized cells were washed again with ice-cold PBS, harvested by centrifugation and subjected to lysis in TNN buffer. Cell debris was removed by centrifugation for 10 minutes, at 7500 xg. The supernatant was utilized for Western Blot analysis. Protein concentrations were determined using the Bio-Rad protein assay dye reagent. Equal amounts of the sample (50 μg) were separated by SDS-PAGE, using 12% polyacrylamide gels. The resolved proteins were then electroblotted onto nitrocellulose membranes (Schleicher & Schuell, Keene, NH, USA). Membranes were blocked with 1% bovine serum albumin and incubated with the desired primary antibody (dilution 1:1000) for 24 hours at 4° C. […] Bands were recorded using BCIP/NBT color development kit (Promega, Madison, W1, USA). […]", "note": "At least one compound was matched to its structure with a doubt left.", "data": [{"smiles": "C=C[C@@]1(C)CC(=O)[C@]2(O)[C@@]3(C)[C@@H](O)CCC(C)(C)[C@@H]3[C@H](O)[C@H](OC(C)=O)[C@@]2(C)O1", "note": "[forskolin]", "values": [{"measurement": "modulatory effect of IB-MECA on PKA and GSK-3β in the presence of the agent", "value": "reversed"}]}]}
